# “And” between values parts separate entries of the source, which are not always exact repeats. Identical values can stand only once. Among all 340,000 compounds or so, about 4,500 (1.3%) were called active. Inconclusive results, whose numbers are uncertain, are shown with a selection of clear calls. Calls follow the shape of the dose curve; as a rule, active = well fitted inhibition curve with a large enough effect; inconclusive = small, poorly fitted or top-dose-only effect, or another doubt; inactive = no such curve, though single readings can be large or run the other way. Potencies beside an inconclusive call are fits to weak or partial responses and may not hold up.
# Molecular target: DNA polymerase beta (Homo sapiens) (UniProt P06746)
# Assay: qHTS Assay for Inhibitors of DNA Polymerase Beta
# Conditions: Pol beta primer extension/strand displacement, fluorescence kinetic; activity change, negative = inhibition: at 114 µM (top of the series)
# Summary of the method: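 Enzyme-only controls used 10 nM Pol beta; buffer lacking enzyme served as negative control. Compound preincubated 15 min, then 50 nM substrate added; 0 and 10 min reads at room temperature.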
# % is scaled to controls: 0 for no effect and ±100 for the full control effect; potency is read from the fitted curve at half-maximal effect.
SMILES,Potency,"activity change, negative = inhibition"
COc1cccc(C(=O)COC(=O)C2CC(=O)N(c3ccc(Oc4ccccc4OC)cc3)C2)c1 (configuration not stated),"inconclusive: 39.8 µM [inhibitor, single point]",–
CCOC(=O)C1=C(O)c2ccccc2C(=O)/C1=C\c1ccc(C)cc1,–,inactive: -9.68%
Cc1ccc(NC(=O)CSCn2nnc3c(=O)[nH]c(Cc4ccc(F)cc4)nc32)c(C)c1,"inconclusive: 28.2 µM [inhibitor, full curve, poor fit]",–
COc1ccccc1NC(=O)c1nnn(CC(=O)Nc2cccc(SC)c2)c1N,"inconclusive: 7.94 µM [inhibitor, partial curve]",–
Cc1ccc(CC(=O)N2CCN(c3ccc([N+](=O)[O-])cc3)CC2)cc1,"inconclusive: 0.355 µM [inhibitor, full curve, poor fit]",–
CCCCSc1nnc2n(-c3cccc(C)c3)c(=O)c3c4c(sc3n12)CCCC4,–,inactive: 4.14%
Fc1ccccc1Oc1ncnc2c1oc1ccccc12,–,inactive: 10.3%
Clc1ccc(-c2csc(=Nc3ccccc3)n2Cc2ccc3c(c2)OCO3)cc1,–,inactive: 4.54%
O=C(Nc1ccc2c(c1)OCCO2)c1oc2ccccc2c1NC(=O)C1CC1,"inconclusive: 28.2 µM [inhibitor, single point]",–
COc1ccc(CNC(=O)CSc2nnc3nc(C)cc(C)n23)cc1OC,"inconclusive: 0.631 µM [inhibitor, full curve, poor fit]",–
CCN(CC)S(=O)(=O)c1ccc(OC)c(NC(=O)OCc2ccccc2)c1,–,inactive: -7.48%
O=C(Nc1cccc(F)c1)c1coc(=O)c(Br)c1,"inconclusive: 39.8 µM [inhibitor, partial curve]",–
Cn1c(/N=C/c2c(O)ccc3ccccc23)nc2ccccc21,active: 50.1 µM,–
O=C(CSc1nnc(SCc2ccc(Cl)cc2)s1)N/N=C/c1c[nH]c2ccccc12,active: 8.91 µM,–
Cc1coc2c1C(=O)C(=O)c1c-2ccc2c1CCCC2(C)C,active: 22.4 µM,–
O=C(O)c1cccc(NN=C2c3ccccc3-c3ccccc32)c1,"inconclusive: 89.1 µM [inhibitor, single point]",–
O=C(CC(=O)Nc1cc(Cl)ccc1Cl)Nc1cc(Cl)ccc1Cl,"inconclusive: 39.8 µM [inhibitor, single point]",–
O=C(Nc1ccc(Br)cn1)c1coc(=O)c(Br)c1,–,inconclusive: -59.3% [inhibitor]
COc1ccc(/C=N/NC(=O)c2ccccc2OC)cc1COc1ccccc1[N+](=O)[O-],"inconclusive: 14.1 µM [inhibitor, single point]",–
Cc1cc(=O)[nH]c(/N=C(\N)Nc2cccc3ccccc23)n1,active: 22.4 µM,–
CCn1ccc2cc(S(=O)(=O)N3CCCN(C(=O)Nc4ccccc4OC)CC3)ccc21,–,inactive: 25.9%
COc1cccc(N2CC(C(=O)Nc3nnc(SCC(=O)NCc4ccco4)s3)CC2=O)c1 (configuration not stated),"inconclusive: 79.4 µM [inhibitor, single point]",–
CNC(=S)N/N=C1\C(=O)c2cccc3cccc1c23,–,inactive: 14.1%

SMILES,Potency,"activity change, negative = inhibition"
Cc1cccc(OCCSc2nc3ccccc3n2CC(=O)N2CCCCC2)c1C,"inconclusive: 4.47 µM [inhibitor, single point]",–
COc1ccc(C2=NN(c3nc4ccccc4s3)C(=O)C2)cc1,"inconclusive: 70.8 µM [inhibitor, single point]",–
O=C(N/N=C/c1ccccc1C(=O)O)c1ccc(COc2cccc3cccnc23)cc1,"inconclusive: 50.1 µM [inhibitor, partial curve]",–
Cc1c(Cl)cccc1-n1ncc(C(=O)N2CCc3ccccc3C2)c1C1CCN(C(=O)OC(C)(C)C)CC1,–,inactive: 29%
COc1ccc(C2C(C(=O)Nc3ccccc3OC)=C(C)Nc3ncnn32)cc1 (configuration not stated),–,inactive: 9.1%
Oc1cc2c(cc1O)CN(C(=S)NCCc1ccc(Cl)cc1)CCC2,"inconclusive: 28.2 µM [inhibitor, partial curve]",–
CN(Cc1ccccc1)C(=O)C1CCN(S(=O)(=O)c2cc([N+](=O)[O-])ccc2Cl)CC1,–,inactive: -1.59% [at 57.1 µM]
COc1cc2cc(C(=O)N/N=C/c3cccc(OC)c3OC)[nH]c2cc1OC,"inconclusive: 10 µM [inhibitor, partial curve, poor fit]",–
COc1cc(Cl)c(C)cc1NC(=O)CCc1c(C)nc2cc(-c3cccc(F)c3)nn2c1C,"inconclusive: 44.7 µM [inhibitor, partial curve]",–
Nc1c(-c2ccccc2)sc2ccc3ccccc3[n+]12,"inconclusive: 35.5 µM [inhibitor, partial curve]",–
COc1ccc(NC(=O)c2ccccc2Sc2ccc(NC(C)=O)nc2)cc1,"inconclusive: 25.1 µM [inhibitor, full curve, poor fit]",–
COc1cc(/C=N/NC(N)=S)ccc1OCC(=O)N1CCOCC1,–,inactive: -9.56%
Cc1ccc(N=Cc2cccc(O)c2O)c(C)c1,active: 10 µM,–
Cc1nc2scc(C)n2c(=O)c1S(=O)(=O)NCc1ccccc1Cl,inactive,–
Cc1ccc(CS(=O)(=O)c2cn(CC(=O)N(C)c3ccccc3)c3ccccc23)cc1,"inconclusive: 56.2 µM [inhibitor, partial curve]",–
O=S(=O)(Nc1ccc(-c2csc(-c3ccccc3)n2)cc1)c1ccc(F)cc1,"inconclusive: 79.4 µM [inhibitor, single point]",–
CSc1nc2nc(-c3ccccc3)cc(=O)n2[nH]1,"inconclusive: 2.82 µM [inhibitor, full curve, poor fit]",–
CCN(Cc1ccncc1)C(=O)c1cc(COc2ccc(C)c(C)c2)on1,"inconclusive: 25.1 µM [inhibitor, single point]",–
Cn1c(=O)c2c(nc(-n3ccnc3)n2Cc2ccc(Cl)cc2Cl)n(C)c1=O,"inconclusive: 89.1 µM [inhibitor, single point]",–
COC(=O)CN1C(=O)C(C)(C)Oc2ccc(C(=O)Nc3cccc(OC)c3)cc21,"inconclusive: 79.4 µM [inhibitor, single point]",–
Cc1ccccc1OCCn1c(=O)oc2ccccc21,"inconclusive: 5.01 µM [inhibitor, full curve, poor fit]",–
COc1ccc(OCC(=O)NCC2(N3CCN(C)CC3)CCCCC2)cc1,–,inactive: 37.3%
CCOC(=O)C1CCN(C(=O)Nc2ccc3nc(-c4ccco4)c(-c4ccco4)nc3c2)CC1,active: 1.58 µM,–

SMILES,Potency,"activity change, negative = inhibition"
Cc1ccc(C(=O)OCC(=O)c2c(N)n(C)c(=O)n(C)c2=O)cc1S(=O)(=O)N1CCCCC1,"inconclusive: 50.1 µM [inhibitor, partial curve]",–
O=C(O)c1ccccc1C(=O)c1ccc(Sc2ccc(Cl)cc2)c([N+](=O)[O-])c1,active: 79.4 µM,–
O=C(CSc1nnnn1-c1ccc(Cl)cc1)NNC(=O)c1ccc([N+](=O)[O-])cc1,"inconclusive: 22.4 µM [inhibitor, single point]",–
O=S(=O)(Cc1noc(-c2ccc(Cl)cc2)n1)Cc1ccco1,active: 14.1 µM,–
COc1cc(/C=C2\SC(=O)N(CC(=O)Nc3ccccc3F)C2=O)cc(Cl)c1O,"inconclusive: 56.2 µM [inhibitor, partial curve, poor fit]",–
COc1cc(OC)cc(C(=O)Nc2ccc(-c3nc4ccccc4o3)c(O)c2)c1,"inconclusive: 28.2 µM [inhibitor, full curve]",–
O=C1CC(N2CCN(c3ccccn3)CC2)C(=O)N1c1ccc(Cl)cc1 (configuration not stated),"inconclusive: 39.8 µM [inhibitor, single point]",–
Cc1ccc(C(=O)OC/C(O)=C(\C#N)c2nc3ccccc3[nH]2)cc1S(=O)(=O)N1CCOCC1,"inconclusive: 15.8 µM [inhibitor, single point]",–
Cc1onc(-c2ccccc2)c1C(=O)N1CCN(Cc2ccc3c(c2)OCO3)CC1,"inconclusive: 2.51 µM [inhibitor, full curve, poor fit]",–
Cc1cc(NC(=O)CN(C)CCOc2ccccc2)ccc1Br,"inconclusive: 0.562 µM [inhibitor, full curve, poor fit]",–
COC(CNC(=O)C1CC(=O)N(CCc2ccccc2)C1)OC (configuration not stated),"inconclusive: 89.1 µM [inhibitor, partial curve]",–
Cc1cccc(NC(=O)Cn2c(=O)n3nc(CCn4nc(C)cc4C)nc3c3ccccc32)c1,"inconclusive: 25.1 µM [inhibitor, partial curve]",–
COc1ccc(N(CC(=O)N2CCCCCC2)S(=O)(=O)c2ccccc2)cc1,"inconclusive: 7.94 µM [inhibitor, full curve, poor fit]",–
COc1cccc(NS(=O)(=O)c2ccc3[nH]cc(C(=O)N(C)Cc4ccco4)c(=O)c3c2)c1,"inconclusive: 39.8 µM [inhibitor, partial curve] and inconclusive: 22.4 µM [inhibitor, full curve]",–
O=C(COC(=O)C1CCCCC1C(=O)N1CCc2ccccc21)NCc1ccco1 (configuration not stated),active: 31.6 µM,–
O=C(CSc1nnc(SCc2ccccc2)s1)N/N=C/C=C\c1ccco1,active: 7.08 µM,–
COc1ccc(NC(=O)c2ccc3c(=O)n4nc(Nc5ccccc5C)sc4nc3c2)cc1,active: 3.98 µM,–
CCOc1cc(/C=N/NC(=O)c2cc(C3CC3)[nH]n2)ccc1O,"inconclusive: 50.1 µM [inhibitor, partial curve]",–
COc1ccc(/C=N/NC(=O)CCSc2nc3ccccc3s2)cc1,"inconclusive: 89.1 µM [inhibitor, single point]",–
COc1ccc(CCNC(=S)Nc2ccc(C(C)C)cc2)cc1,–,inactive: -26%
O=C(Nc1cccc(Cl)c1)C1=Cc2cc(Cl)ccc2OC1,"inconclusive: 79.4 µM [inhibitor, single point]",–

# From PubChem BioAssay AID485314 (National Center for Advancing Translational Sciences (NCATS), 2010)
